Primary screen of a compound library

Source: ChEMBL document CHEMBL3988442, “University of Dundee, Small-Polar-MMV Screening Library” (2021).

Values are the deposited “Percent Effect”, in %. The controls that fix the scale are not given in the record; negative values are as filed. Compounds were drawn at random from those tested, without regard to their results. A dash means the value is not listed here; it may have been measured.

Mtb growth Cornell: 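Whole-cell assay for inhibitors of Mycobacterium tuberculosis growth, labelled Cornell in the record; the read-out is not stated. The concentration is filed as 10 mM, unlikely as a test dose, so the dose is not known. The record gives no direction; compounds strong in two other growth screens of this library score well above the rest, so higher reads as stronger inhibition. Size under these conditions: about 53,000 compounds, about 900 of them at 50% or above in at least one test.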
Mtb heat-shock: 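Assay on Mycobacterium tuberculosis, filed only as a heat shock assay from Cornell; the read-out is not stated. The concentration is filed as 10 mM, unlikely as a test dose, so the dose is not known. Direction is inferred from retests: higher values go with stronger inhibition. Of about 69,000 compounds tested this way, about 930 (1.4%) reached 50% or more in at least one test.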

structure,Mtb growth Cornell,Mtb heat-shock
Cc1cc(C)c(CNc2ncnc3ccsc23)c(=O)[nH]1,-,1.936%
CC(C)NC(=O)c1cc2c(s1)CCN2c1ncccn1,-7.14%,19.32%
CC(C(=O)NCc1ccc(F)cc1)N(C)CCN1CCOCC1 (stereo unspecified),-,-4.591%
O=C(O)C(F)(F)F.O=C(O)C(F)(F)F.O=C1N(c2ccsc2)CCC12CCCN(Cc1ccccn1)C2 (stereo unspecified),21.19%,-27.16%
Cc1nc(C)n(CC2CCCCN2Cc2nnc(C3CC3)o2)n1 (stereo unspecified),-11.78%,-3.473%
Cn1ccnc1CN1C[C@@H](CN2CCC(CO)CC2)[C@@H](CO)C1,-,-9.4%
CN(C(=O)COC1CCCCC1)C1CCN(CC2CCOC2)CC1 (stereo unspecified),-,-19.84%
Cc1cc(C)n2ncc(CN3CCC(Cn4cc(CO)nn4)CC3)c2n1,-,-3.821%
COCc1nnn2c1CN(C(=O)c1ccnnc1)CCC2,-7.239%,-15.58%
CCCc1noc(C2CCCCN2C(=O)CCc2cnn(C)c2)n1 (stereo unspecified),-,14.17%
N#Cc1ccccc1N1CCCN(C(=O)NCc2cc[nH]n2)CC1,-1.72%,0.8213%
NCC(c1cccnc1)N1CCOCC1 (stereo unspecified),0.8827%,-2.757%
O=C(NCCc1nncn1C1CC1)C1SCCc2ccccc21 (stereo unspecified),29.39%,0.6359%
Cc1cc2nc(C(C)C)cc(N3CCC(O)CC3)n2n1,7.748%,20.93%
CN(CC(=O)N1CCCC1c1ccccn1)Cc1ccccc1 (stereo unspecified),2.392%,-35.99%
CN(C)CCN1CCOCC2(CCCN(C(=O)c3cccc(O)c3)C2)C1 (stereo unspecified),13.07%,-22.59%
[H][C@@]12CN(S(C)(=O)=O)C[C@]1(C(=O)NC)CCC21CCN(C(=O)C(C)C)CC1,-,-28.33%
CN1CCN(Cc2cnc3n2CCN(C(=O)c2ccccn2)C3)CC1,15.91%,-0.2069%
N#Cc1ccc(CNCC(C(=O)N2CCOCC2)c2ccccc2)cc1 (stereo unspecified),28.87%,-10.29%
Cc1noc([C@@H]2C[C@H](NC(=O)Nc3ccccc3)CN2C)n1,-3.951%,-29.39%
CCc1nnc(CN2CCC(C3CCCCCN3C(=O)C3CC3)CC2)o1 (stereo unspecified),-36.85%,10.18%
O=C(c1ccc(C(F)(F)F)nc1)N1CCCC(n2cncn2)C1 (stereo unspecified),9.084%,2.28%
CN(C)c1cc2c(nn1)CCN(C(=O)C1Cc3ccccc3S1)C2 (stereo unspecified),54.31%,-6.174%
CCNC(=O)c1ccoc1CN1c2ccccc2CC1C (stereo unspecified),70.88%,-19.85%
CC(C)c1noc(CCNC(=O)C2COc3ccccc3C2)n1 (stereo unspecified),1.466%,-12.65%
O=C(O)c1cc(/C=C/c2ccc3ccccc3c2)ncn1,74.73%,55.05%
CN(C)Cc1ccnc(NS(=O)(=O)CCc2ccccc2)c1,37.77%,6.232%
Cc1ccc(CN(CC(=O)N2CCOC(C)C2)C2CC2)cc1 (stereo unspecified),-,3.317%
CC(C)n1nc(CN2CCOCC2)c2c1CN(Cc1ccsc1)C2.O=C(O)C(F)(F)F.O=C(O)C(F)(F)F,-7.186%,-6.61%
CN1C(=O)CO[C@H](c2ccc(NC(=O)c3cccc(F)c3)cc2)[C@H]1CO,24.24%,-3.473%
CCCn1cc(-c2cc(C(=O)N(C)C)c3ccc(OC)cc3n2)cn1,-1.707%,1.778%
CN1CCOC(CNCc2coc(-c3ccccc3)n2)C1 (stereo unspecified),-22.94%,5.071%
CC(=O)c1c(C)nn(S(=O)(=O)c2ccccc2)c1C,-,8.235%
CCOCC1CC2(CCN(C(=O)C3CC=CC3)CC2)CO1 (stereo unspecified),-18.1%,-4.343%
O=C(c1n[nH]cc1Br)N1CCOCC1,12.36%,5.995%
COc1cccc(CN2CCC3(COCc4cnc(N(C)C)nc43)C2)c1.O=C(O)C(F)(F)F (stereo unspecified),22.8%,-38.92%
Cc1noc(C)c1CN(C)C(C)c1cccs1 (stereo unspecified),2.24%,7.19%
O=C(CCN1CCc2[nH]nc(C(F)(F)F)c2C1)Nc1ccccc1,-,7.84%
CC(NCc1cccc(Cl)c1)c1ccc(OCC(=O)NC2CC2)cc1 (stereo unspecified),-15.81%,-4.758%
CCOC(=O)NCCC(=O)NC(C)(C)c1ccc2c(c1)OCCO2,14.1%,1.261%
COc1ccc(C(C)NCc2cccs2)cc1Cn1cccn1 (stereo unspecified),-2.258%,-32.43%
COCCC(=O)N1CCCC2(CCC(=O)N2CCOC)CC1 (stereo unspecified),12.43%,-23.12%
c1ccc2c(Cc3nnc([C@H]4CCN(CC5CC5)C4)o3)c[nH]c2c1,9.852%,-19.22%
CC(O)c1cn(CC2CCN(C(=O)CN(C)C(C)C)CC2)nn1 (stereo unspecified),17.98%,5.801%
CN1CCN(C(=O)N2CCCC(c3nccn3CC3CCC3)C2)CC1 (stereo unspecified),14.74%,-3.575%
O=C(c1cc2c(s1)CCC2)N1CCC(c2cnccn2)CC1,12.57%,6.496%
Cc1cc(-c2ccc(=O)n(C3CCN(S(C)(=O)=O)CC3)n2)c(C)o1,0.6397%,7.618%
O=C(CCCOc1ccccc1F)Nc1cc[nH]n1,34.46%,17.58%
CCCN(CC1CC1)C(=O)CN1CCCC1c1cnn(C)c1 (stereo unspecified),9.584%,3.305%
Cc1ccc(Cl)cc1S(=O)(=O)NCc1cnc(N(C)C)n1C,-3.816%,-13.83%
c1ccc(OCCCNCCn2cccn2)cc1,-,-4.469%
CC(C)Cc1noc(CN2CCN(S(C)(=O)=O)CC2)n1,-,-7.444%
CCN(C(=O)Nc1cc(C)on1)C(C)c1cccc(O)c1 (stereo unspecified),11.83%,9.165%
CO[C@@H]1CO[C@@]2(CCCN(C(=O)C3CC=CC3)C2)C1,-36.59%,42.93%
Cn1cc(CN2CCC[C@]3(C[C@@H](Oc4ncccc4F)CO3)C2)cn1.O=C(O)C(F)(F)F.O=C(O)C(F)(F)F,1.924%,39.96%
O=C(c1cc(=O)c(OCc2ccccc2F)co1)N1CCSCC1,33.18%,12.33%
CN(C)c1nc(O)cc(C2CCN(C(=O)Cc3ccccn3)C2)n1 (stereo unspecified),3.161%,21.41%
CCc1nnc(CN(C)Cc2cccc(C(=O)Nc3nccs3)c2)o1,1.123%,-8.179%
CCN(Cc1cccc(-c2ccncc2)c1)S(C)(=O)=O,11.35%,-22.72%
Cc1cccc(C2(C(=O)NCC3CN(C)CCO3)CC2)c1 (stereo unspecified),3.522%,11.15%
CSCc1cc(F)ccc1CNC(=O)N1CCC(CO)CC1,14.53%,-16.83%
N#CC1(C(=O)N2CCOC(c3ccc(Cl)cc3)C2)CCCC1 (stereo unspecified),13.07%,24.81%
Cc1cccc(CN2CCn3cc(Cn4cccn4)nc3C2)n1.O=C(O)C(F)(F)F.O=C(O)C(F)(F)F.O=C(O)C(F)(F)F,22.04%,-1.819%
CN1CC(=O)c2sc(NCCc3ccccc3)nc2C1,-47.63%,-13.74%
O=C(Cn1ccc2sccc2c1=O)NCc1ccccc1F,25.41%,9.378%
COc1ccnc(N(C)Cc2ccco2)n1,-32.94%,-18.4%
O=C(O)C(F)(F)F.[H][C@@]12CCN(S(=O)(=O)C3CC3)[C@@]1([H])CCN2C(=O)c1ccncc1,-47.76%,3.299%
Cc1ncnc(NCCCN2CCCCC2CO)c1C (stereo unspecified),6.29%,12.07%
CN(C)CCCNC(=O)CNC(=O)N1CCc2c([nH]c3ccccc23)C1,-,-13.16%
CSc1ncn(-c2nc(N(C)C)nc(N(C)C)n2)n1,-12.33%,0.3919%
CC(C)c1nc(C2CCCN2CCOCC2CC2)no1 (stereo unspecified),-1.812%,-25.49%
O=C(O)c1nnn(-c2ccccc2)c1-c1ccncc1,12.18%,-26.18%
[H][C@@]12OCCN(S(=O)(=O)CC)[C@@]1([H])CC[C@H]2OCC1CCCC1,34.1%,2.711%

Once more, the final 7:

| structure | Mtb growth Cornell | Mtb heat-shock |
|---|---|---|
| `O=C(O)C(F)(F)F.[H][C@@]12CCN(S(=O)(=O)C3CC3)[C@@]1([H])CCN2C(=O)c1ccncc1` | -47.76% | 3.299% |
| `Cc1ncnc(NCCCN2CCCCC2CO)c1C` (stereo unspecified) | 6.29% | 12.07% |
| `CN(C)CCCNC(=O)CNC(=O)N1CCc2c([nH]c3ccccc23)C1` | - | -13.16% |
| `CSc1ncn(-c2nc(N(C)C)nc(N(C)C)n2)n1` | -12.33% | 0.3919% |
| `CC(C)c1nc(C2CCCN2CCOCC2CC2)no1` (stereo unspecified) | -1.812% | -25.49% |
| `O=C(O)c1nnn(-c2ccccc2)c1-c1ccncc1` | 12.18% | -26.18% |
| `[H][C@@]12OCCN(S(=O)(=O)CC)[C@@]1([H])CC[C@H]2OCC1CCCC1` | 34.1% | 2.711% |